2 molecules from patent US6482410B1, “Cytotactin derivatives that stimulate attachment and neurite outgrowth, and methods of making same” (The Scripps Research Institute, priority 1994, dated 2002) can be followed below.

This data set is described as follows: Quantitation of 125I-labeled fusion protein bound to polystyrene dish. Particulars: fusion protein with trace 125I-labeled protein adsorbed to polystyrene.

B1: CTfn6: CT:GST fusion protein, fibronectin type III repeat VI, residues 1318-1398 of SEQ ID NO 4 (protein)
chain: VVGSPKGISFSDITENSARVSWTPPRSRVDSYRVSYVPITGGTPNVVTVDGSKTRTKLVKLVPGVDYNVNIISVKGFEESE
modifications: left off: a dimerising Fc or GST
Regarding B1, the “amount of fusion protein bound to the polystyrene dish” value is reported as 100 pmol/mm^2.

B2: CTfn3: CT:GST fusion protein, fibronectin type III repeat III, residues 774-864 of SEQ ID NO 4 (protein)
chain: LDAPSQIEAKDVTDTTALITWSKPLAEIEGIELTYGPKDVPGDRTTIDLSEDENQYSIGNLRPHTEYEYEVTLISRRGDMESDPAKEVFVT
modifications: left off: a dimerising Fc or GST
B2: the “amount of fusion protein bound to the polystyrene dish” value came to 96 pmol/mm^2.
